# Measured values as given in the supplement of paper PMC3334620.
# The full ranking holds about 33,000 sequences; the median of “E-score (-0.5 to 0.5)” is about -0.015, and the highest 2% start at about 0.3. This is one part of the list.
# Target: T1, Abf1 (UniProt P14164)
# T1 sequence: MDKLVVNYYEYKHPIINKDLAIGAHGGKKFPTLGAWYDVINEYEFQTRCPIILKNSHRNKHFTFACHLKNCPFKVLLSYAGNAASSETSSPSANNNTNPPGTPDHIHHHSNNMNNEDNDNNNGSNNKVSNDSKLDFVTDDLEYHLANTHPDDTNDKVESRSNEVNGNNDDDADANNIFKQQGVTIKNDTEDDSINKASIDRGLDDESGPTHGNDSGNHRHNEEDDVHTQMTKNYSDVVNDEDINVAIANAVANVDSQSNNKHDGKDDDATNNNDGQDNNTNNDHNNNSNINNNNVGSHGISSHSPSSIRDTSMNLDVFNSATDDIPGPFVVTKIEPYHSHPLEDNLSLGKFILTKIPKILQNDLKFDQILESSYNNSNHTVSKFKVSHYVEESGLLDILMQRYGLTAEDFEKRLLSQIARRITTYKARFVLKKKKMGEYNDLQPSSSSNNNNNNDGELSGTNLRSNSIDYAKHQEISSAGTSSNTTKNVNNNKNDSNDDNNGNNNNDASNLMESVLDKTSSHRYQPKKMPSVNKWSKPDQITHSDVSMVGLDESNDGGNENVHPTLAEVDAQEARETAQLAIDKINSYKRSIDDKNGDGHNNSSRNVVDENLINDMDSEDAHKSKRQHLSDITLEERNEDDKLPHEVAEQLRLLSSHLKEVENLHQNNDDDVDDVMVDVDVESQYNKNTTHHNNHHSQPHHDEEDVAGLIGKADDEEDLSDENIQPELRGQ
# Assay: PBM E-score (8-mer binding enrichment) (E-score (-0.5 to 0.5)); higher = stronger / more preferred TF binding
# Conditions: protein concentration: 200 nM; construct: GST-full length
# Outline: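 E-scores (a modified Wilcoxon-Mann-Whitney statistic) were assigned by the Universal PBM Analysis Suite to every ungapped eight-base word pooled with its reverse complement. The input came from universal all-10-mer Agilent arrays made double-stranded by primer extension and probed with GST-tagged yeast transcription factors at about 100-200 nM. Fluorescent anti-GST detected bound protein, and masliner normalised the scans.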
row,Sequence,PBM E-score
1,CATGGCCA,-0.0361
2,CGGATACA,-0.0953
3,AATTGACG,-0.00347
4,CCTTAACC,-0.08
5,CCGCATCA,-0.0404
6,GTTACGCA,0.0674
7,CAGTGGAA,-0.0893
8,CAGTACCA,-0.0538
9,AGATCCTG,0.0554
10,CTTCCTCA,-0.161
11,AATTGATA,0.22
12,ATGACACA,0.266
13,AGCGGGAA,0.13
14,CCCCTCTC,-0.242
15,ATGATCGC,0.0946
16,CAGTTAGA,0.0104
17,ATTCGTAA,0.203
18,GATACCGC,-0.115
19,ATCATGTA,0.208
20,CGTCACAA,0.159
21,CGAGACCA,-0.00853
22,ATGTCATG,0.349
23,TATACACA,-0.00989
24,GCAAGCAC,-0.0888
25,AAGAACTC,-0.031

row,Sequence,PBM E-score
1,GCCTGAGA,-0.266
2,CTAAGGTC,-0.203
3,GGACGAGA,0.145
4,CATGGGCG,0.0639
5,ATTCTATA,0.026
6,TCCTATCA,0.194
7,ATACGCTG,0.0755
8,ACAAAATG,0.0785
9,GGTAGCGA,0.171
10,CTCGTTCC,-0.0442
11,CTACAAGC,-0.222
12,AACTGGCG,-0.114
13,CGAGGGAC,-0.189
14,CTACCTAG,-0.113
15,AAGGTAAT,0.201
16,CTAAGCCC,-0.19
17,GATGTCGA,0.157
18,CGATCGTA,0.252
19,CTGCCCTA,-0.132
20,AAGAATGG,-0.136
21,TAGGAGCA,-0.0585
22,AATATTTC,0.14
23,AGTTTGCG,-0.137
24,CGAACTCA,-0.0537
25,ATACTCCA,-0.0491

# Laid out differently: entries from further up
row	Sequence	PBM E-score
12	AACTGGCG	-0.114
22	AATATTTC	0.14

# Copied from the list:
# For PBM E-score, ACAAAATG has the entry 0.0785
# For PBM E-score, AACTGGCG has the entry -0.114

# (listing goes on)

row,Sequence,PBM E-score
1,ACCCTGTG,-0.129
2,CCCGGTTA,-0.0871
3,GCAGCCAC,-0.139
4,GCGGTTCC,-0.159
5,AAACGCGT,0.0484
6,AACTCCAT,-0.116
7,CAATCTCA,-0.0871
8,AAACCAGT,-0.179
9,CGGCCGCA,-0.17
10,GTGATTAA,0.249
11,GATTCTAC,0.0143
12,ACGGAATC,0.0606
13,AAAAGTCG,-0.0916
14,GCACGACA,0.338
15,TCGAGAGA,-0.0295
16,AGCTGTGA,0.0832
17,CTTTAGTA,-0.00184
18,AGAATGAT,0.33
19,GTTCGTAA,0.234
20,GTTGTCCA,0.121
21,AAATCCAG,0.0334
22,AAGTACTC,-0.141
23,CAATAGTA,0.0115
24,ACGCTTAT,-0.181
25,GACCAGGC,-0.226

row,Sequence,PBM E-score
1,TAATTCCA,0.0387
2,ATTTGGAA,0.117
3,CTAGGATC,0.0897
4,GAGTCCTA,-0.159
5,ATAGGGTA,-0.13
6,GCAGAGCA,-0.216
7,AACTCCAC,0.108
8,AAGGTCAA,-0.122
9,CTTGCGAC,0.113
10,AGAGACAG,-0.135
11,AGATTAGC,0.0243
12,GTGCAGAA,0.109
13,TGAAGGCA,-0.126
14,CATGCATA,0.033
15,TCGGTGCA,-0.0272
16,TAGTGGAA,-0.115
17,CTCACATA,-0.139
18,CGGCCCCA,-0.305
19,ATCGAGCC,-0.175
20,GCTTAACA,-0.0819
21,GCGCCGGA,-0.165
22,CGGCGATC,0.0485
23,CCGGCAGA,-0.167
24,AAAGGTTC,-0.197
25,TCAGTGCA,-0.133

row,Sequence,PBM E-score
1,CAGCAGGA,-0.0545
2,AACCGGGA,-0.0161
3,GAACACAC,-0.136
4,CTTGGTCC,-0.211
5,CACAACAG,-0.303
6,AGAATACG,-0.00499
7,AAGGGAAG,0.0116
8,CAATGGTC,-0.0437
9,CAAATCCG,-0.161
10,AAGGTGTA,-0.0595
11,CACTGCCA,0.0191
12,GGGGGACC,-0.429
13,CGATCTAA,0.0449
14,AACCCAGT,-0.06
15,GCGACTAC,-0.134
16,ACAACTCC,0.0276
17,ACTGGCTG,0.00013
18,AAAGCATT,0.0497
19,CCATGCAA,0.196
20,AATGCTCC,-0.223
21,CAACCTAG,-0.0549
22,AGCCTGGG,-0.196
23,CAGTCCCA,-0.166
24,GTCGAAAA,0.107
25,ATAATGGC,0.0585

row,Sequence,PBM E-score
1,AGAAGTTC,0.03
2,CTGCTTCC,-0.261
3,CTATACGC,-0.0573
4,TGGCGACA,0.0957
5,AATTAACA,0.0377
6,TAAAACTA,0.0232
7,ATCCGGGG,0.00013
8,CTCGTTCA,0.111
9,TCAAGTAA,0.0816
10,CTTAAATC,0.221
11,GCGTTCAA,-0.0872
12,ATAAGCCG,-0.0988
13,ACGAAGTG,0.301
14,ATTTGTGG,0.165
15,ACAATTAT,0.242
16,ACCAGACT,-0.0471
17,CCTAAAAA,-0.0486
18,TGGCAAAA,0.0118
19,CCAGTTAC,-0.0955
20,ATCCCAGG,-0.13
21,GCCGTTAA,0.163
22,AAGAGGTC,-0.117
23,ATCAACTG,0.00191
24,ACAGCCTA,0.0227
25,GCATCCTA,0.0741

row,Sequence,PBM E-score
1,CAGGAGAC,-0.0274
2,CTTTGCAC,0.209
3,ACATAGCG,-0.0126
4,ATATAGTG,0.26
5,ACCGCACG,0.12
6,ACTCGCAC,-0.214
7,CCCCTATC,-0.125
8,GAAGAGCC,-0.0564
9,AGTCCGTA,0.175
10,GCCCCAAC,-0.0188
11,AGGTCATC,0.161
12,AATGTTCC,-0.00373
13,CCCGTCGG,-0.0638
14,CAATTGCG,-0.115
15,GTTCACTA,0.115
16,AGTATCTA,0.153
17,CCTTAGGC,-0.0403
18,AGTGTGCG,-0.077
19,GGATCTGA,-0.135
20,ATTCGTCA,0.164
21,ACCCTGAC,-0.178
22,ATGGTATC,0.109

# A second format for part of the listing above.
row	Sequence	PBM E-score
1	CAGGAGAC	-0.0274
2	CTTTGCAC	0.209
3	ACATAGCG	-0.0126
